Results are given in words; binding and its absence hold for the method and conditions named. Binding seen in cells or lysates may run through a third protein. Where a sequence is shown, tags or fusion partners need not be part of it.
Molecular target: Flag-mutant PTP4A1 (D72A/C104S in the text; D74A/C104S in the legend) (UniProt Q93096)
Assay: co-IP; HEK293T cells co-transfected; lysates immunoprecipitated with anti-Flag antibody overnight at 4 °C, protein G-Sepharose beads 2 h at 4 °C; Western blot

By UniProt entry, the sequences of proteins in these tests, tags left out. Where a name states a change or a piece, a line headed by the entry shows the natural chain unless it says otherwise.
UniProt Q93096: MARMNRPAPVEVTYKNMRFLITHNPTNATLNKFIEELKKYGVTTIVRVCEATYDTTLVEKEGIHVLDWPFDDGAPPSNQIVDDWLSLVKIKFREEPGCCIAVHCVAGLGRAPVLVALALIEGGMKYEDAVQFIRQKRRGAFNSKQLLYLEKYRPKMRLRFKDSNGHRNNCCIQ

B1: HA-CREBH(F), the inactive form of cyclic adenosine monophosphate-responsive element-binding protein H (protein, UniProt Q68CJ9 1-461)
chain: MNTDLAAGKMASAACSMDPIDSFELLDLLFDRQDGILRHVELGEGWGHVKDQQVLPNPDSDDFLSSILGSGDSLPSSPLWSPEGSDSGISEDLPSDPQDTPPRSGPATSPAGCHPAQPGKGPCLSYHPGNSCSTTTPGPVIQVPEASVTIDLEMWSPGGRICAEKPADPVDLSPRCNLTVKDLLLSGSSGDLQQHHLGASYLLRPGAGHCQELVLTEDEKKLLAKEGITLPTQLPLTKYEERVLKKIRRKIRNKQSAQESRKKKKEYIDGLETRMSACTAQNQELQRKVLHLEKQNLSLLEQLKKLQAIVVQSTSKSAQTGTCVAVLLLSFALIILPSISPFGPNKTESPGDFAPVRVFSRTLHNDAASRVAADAVPGSEAPGPRPEADTTREESPGSPGADWGFQDTANLTNSTEELDNATLVLRNATEGLGQVALLDWVAPGPSTGSGRAGLEAAGDEL
In the case of B1, the binding is reported as “no binding”.
